# Measurements as given in patent publication US20210040189A1.
# The chains behind the UniProt entries cited, without tags or fusion partners. Residues count along the entry.
# UniProt O88572, residues 20-1370: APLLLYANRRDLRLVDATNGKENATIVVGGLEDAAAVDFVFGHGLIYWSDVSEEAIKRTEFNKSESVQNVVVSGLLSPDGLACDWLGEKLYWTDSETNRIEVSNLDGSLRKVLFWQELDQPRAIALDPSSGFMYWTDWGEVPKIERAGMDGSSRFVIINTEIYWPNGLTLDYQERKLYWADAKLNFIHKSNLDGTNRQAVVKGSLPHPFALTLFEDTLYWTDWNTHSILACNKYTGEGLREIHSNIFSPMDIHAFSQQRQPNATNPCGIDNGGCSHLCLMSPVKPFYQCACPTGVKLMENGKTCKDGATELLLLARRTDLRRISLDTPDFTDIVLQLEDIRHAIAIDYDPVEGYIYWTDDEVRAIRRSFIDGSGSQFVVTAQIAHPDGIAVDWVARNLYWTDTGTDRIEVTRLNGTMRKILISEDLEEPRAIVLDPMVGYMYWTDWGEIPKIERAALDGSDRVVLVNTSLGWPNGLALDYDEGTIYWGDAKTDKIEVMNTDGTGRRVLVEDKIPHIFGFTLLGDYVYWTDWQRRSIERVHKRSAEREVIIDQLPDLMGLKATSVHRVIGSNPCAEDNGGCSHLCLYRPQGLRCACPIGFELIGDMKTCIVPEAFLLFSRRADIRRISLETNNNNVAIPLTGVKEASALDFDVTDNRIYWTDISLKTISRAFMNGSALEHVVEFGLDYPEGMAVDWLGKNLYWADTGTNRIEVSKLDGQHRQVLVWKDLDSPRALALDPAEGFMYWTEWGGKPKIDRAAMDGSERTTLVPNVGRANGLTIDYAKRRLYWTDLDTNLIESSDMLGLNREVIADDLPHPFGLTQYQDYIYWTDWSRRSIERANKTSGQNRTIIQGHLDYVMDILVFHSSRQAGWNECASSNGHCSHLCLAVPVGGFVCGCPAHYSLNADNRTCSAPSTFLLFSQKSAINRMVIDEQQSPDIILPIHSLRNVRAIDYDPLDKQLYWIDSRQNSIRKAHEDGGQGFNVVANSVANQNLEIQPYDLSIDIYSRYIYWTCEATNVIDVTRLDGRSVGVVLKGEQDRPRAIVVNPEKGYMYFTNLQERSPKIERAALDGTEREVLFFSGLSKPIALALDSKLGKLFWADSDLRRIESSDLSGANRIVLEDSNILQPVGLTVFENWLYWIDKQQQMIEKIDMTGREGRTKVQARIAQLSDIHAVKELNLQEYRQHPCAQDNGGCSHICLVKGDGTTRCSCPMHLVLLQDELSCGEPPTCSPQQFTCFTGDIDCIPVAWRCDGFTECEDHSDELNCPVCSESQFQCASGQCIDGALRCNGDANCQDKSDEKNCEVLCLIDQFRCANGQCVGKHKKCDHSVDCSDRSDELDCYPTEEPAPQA
# Results are given in words; binding and its absence hold for the method and conditions named. Binding seen in cells or lysates may run through a third protein. Some entries that bind do so weakly or less than the wild type. Where a sequence is shown, tags or fusion partners need not be part of it.
# T1: recombinant human kremen2-his (human) (UniProt Q8NCW0)
# T1 sequence (looked up): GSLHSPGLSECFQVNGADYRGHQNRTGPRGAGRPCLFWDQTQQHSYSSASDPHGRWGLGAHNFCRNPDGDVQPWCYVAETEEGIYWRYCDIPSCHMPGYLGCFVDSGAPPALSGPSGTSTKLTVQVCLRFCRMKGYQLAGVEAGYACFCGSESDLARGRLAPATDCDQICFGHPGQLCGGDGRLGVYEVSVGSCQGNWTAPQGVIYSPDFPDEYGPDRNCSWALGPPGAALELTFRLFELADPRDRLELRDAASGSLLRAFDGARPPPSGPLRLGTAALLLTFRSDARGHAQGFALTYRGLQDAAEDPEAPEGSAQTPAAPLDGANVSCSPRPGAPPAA
# Columns and labels:
# [1] = molecular target: T1, recombinant human kremen2-his (human); experiment: co-immunoprecipitation with anti-His antibody, Western blot with anti-Flag antibody; receptor is kremen2-his by paragraph 311, paragraph 313 and paragraph 314, although the lane lists in paragraph 31 and paragraph 313 say LRP6-His
# LRP6-His (mouse) = LRP6-His (mouse) (UniProt O88572); experiment: co-immunoprecipitation with anti-His antibody, Western blot with anti-Flag antibody
binder,measurement,setting,value
"Flag tagged rhDKK1 (ligand, not shown: small tags and cut ends) TLNSVLNSNAIKNLPPPLGGAAGHPGSAVSAAPGILYPGGNKYQTIDNYQPYPCAEDEECGTDEYCASPTRGGDAGVQICLACRKRRKRCMRHAMCCPGNYCKNGICVSSDQNHFRGEIEETITESFGNDHSTLDGYSRRTTLSSKMYHTKGQEGSVCLRSSDCASGLCCDRHFWSKICKPVLKEGQVCTKHRRKGSHGLEIFQRCYCGEGLSCRIQKDHHQASNSSRLHTCQRH",binding,[1],binds
same,binding,LRP6-His (mouse),binds
